Our source for the Inhibition values is ChEMBL document CHEMBL4513141, “CO-ADD screening of NIH (USA) - Clinical Collection” (2021).

This is one part of the list. Measured potencies and affinities stand elsewhere.

This assay deals with Pseudomonas aeruginosa. As to conditions: Concentration 20 uM; ASSAY_TEST Inhibition of Bacterial Growth; detection method Absorption (OD600); MEDIA CAMHB; plate type 384well; NBS; CORNING #3640; time 18 hr.
Usually Inhibition stands for the change of the read-out against control, counted positive when it falls. In the case of `Cl.NCC(O)c1ccc(O)c(O)c1` (stereo unspecified), the Inhibition is reported as 7.4%. In the case of `COc1cc(CNC(=O)CCCC/C=C\C(C)C)ccc1O` [ZUCAPSAICIN], the Inhibition is 15.26%. Turning to `CN1C(=O)CN=C(c2ccccc2)c2cc([N+](=O)[O-])ccc21` [NIMETAZEPAM], the Inhibition worked out at 16.21%.

Regarding `CN(C)CCc1c[nH]c2ccc(C[C@H]3COC(=O)N3)cc12` [ZOLMITRIPTAN], the Inhibition came out at 4.59%. For the compound `Cn1c(=O)c2nc[nH]c2n(C)c1=O.O` [THEOPHYLLINE], the Inhibition is 16.98%. On to `Cc1ncc2n1-c1ccc(Cl)cc1C(c1ccccc1F)=NC2.Cl` [MIDAZOLAM HYDROCHLORIDE], for which the Inhibition came out at 11.86%.

On to `NS(=O)(=O)c1cc(C2(O)NC(=O)c3ccccc32)ccc1Cl` (stereo unspecified) [CHLORTHALIDONE], for which the Inhibition worked out at 9.93%. For `Cl.c1ccc2c(CC3=NCCN3)cccc2c1` [NAPHAZOLINE HYDROCHLORIDE], the Inhibition worked out at 21.25%. Consider `O=C1CN=C(c2ccccc2)c2cc([N+](=O)[O-])ccc2N1` [NITRAZEPAM], for which the Inhibition is on record as 3.8%.

Consider `NC(=O)C[S+]([O-])C(c1ccccc1)c1ccccc1` (stereo unspecified) [MODAFINIL], for which the Inhibition came out at 8.07%. Consider `C[C@]12CC[C@H]3[C@@H](CCC4=CC(=O)CC[C@@]43C)[C@@H]1CC[C@@H]2O` [TESTOSTERONE], for which the Inhibition is given as -7.2%. In the case of `CN/C(=N\CCSCc1nc[nH]c1C)NC#N` [CIMETIDINE] it was 12.46%; in that of `CS(=O)(=O)O.O=C(O[C@@H]1C[C@@H]2C[C@H]3C[C@H](C1)N2CC3=O)c1c[nH]c2ccccc12`, 3.12%. Consider `Br.CN1[C@@H]2CC(OC(=O)[C@H](CO)c3ccccc3)C[C@H]1[C@@H]1O[C@@H]12.O.O.O` (stereo partly specified), for which the Inhibition is on record as 20.16%. For `CN1[C@@H](CC(=O)c2ccccc2)CCC[C@H]1C[C@H](O)c1ccccc1.Cl` [LOBELINE HYDROCHLORIDE], the Inhibition is on record as 18.5%. As for `Cl.O=C1CC2(CCCC2)CC(=O)N1CCCCN1CCN(c2ncccn2)CC1` [BUSPIRONE HYDROCHLORIDE], the Inhibition was 11.48%.

For the compound `CC(C)(C)NCC(O)c1cc(O)cc(O)c1.O=S(=O)(O)O` (stereo unspecified), the Inhibition is 12.22%. As to `CN(C)C(=O)C(CCN1CCC(O)(c2ccc(Cl)cc2)CC1)(c1ccccc1)c1ccccc1.Cl` [LOPERAMIDE HYDROCHLORIDE], the Inhibition worked out at 13.15%. For `C[C@]12CC[C@H]3[C@@H](CCC4=CC(=O)CC[C@@H]43)[C@@H]1CC[C@@H]2O` [NANDROLONE] the value was 5.8%; for `CC(C)CC(N(C)C)C1(c2ccc(Cl)cc2)CCC1` (stereo unspecified) [SIBUTRAMINE], 6.77%. For `C#CCN(C)[C@H](C)Cc1ccccc1.Cl` [SELEGILINE HYDROCHLORIDE] the value was 19.46%. In the case of `C[C@H](CCC(=O)O)[C@H]1CC[C@H]2[C@@H]3C(=O)C[C@@H]4CC(=O)CC[C@]4(C)[C@H]3CC(=O)[C@]12C` [DEHYDROCHOLIC ACID], the Inhibition turned out to be 10.13%. As for `Cc1cc(NS(=O)(=O)c2ccc(N)cc2)no1` [SULFAMETHOXAZOLE], the Inhibition turned out to be 6.86%.

Regarding `C[C@]12CC[C@H](O)CC1=CC[C@@H]1[C@@H]2CC[C@]2(C)C(=O)CC[C@@H]12` [PRASTERONE], the Inhibition was 11.37%. `CCOC(=O)c1ncn2c1CN(C)C(=O)c1cc(F)ccc1-2` [FLUMAZENIL]: the Inhibition amounted to 6.15%.

Take `CC(=O)[C@H]1CC[C@H]2[C@@H]3CCC4=CC(=O)CC[C@]4(C)[C@H]3CC[C@]12C` [PROGESTERONE]: the Inhibition is 17.62%.

With `CN1[C@@H]2CC[C@H]1C[C@@H](OC(=O)c1c[nH]c3ccccc13)C2.Cl`, the Inhibition amounted to 23.54%.

As for `CNC(=O)Oc1ccc2c(c1)[C@]1(C)CCN(C)C1N2C.CNC(=O)Oc1ccc2c(c1)[C@]1(C)CCN(C)C1N2C.O=S(=O)(O)O` (stereo partly specified), the Inhibition worked out at 12.54%.

As to `Cl.N=C(N)NC(=O)c1nc(Cl)c(N)nc1N.O.O` [AMILORIDE HYDROCHLORIDE], the Inhibition is given as 16.08%.

On to `CC(=O)OC1C([N+]2(C)CCCCC2)C[C@H]2C3CC[C@H]4C[C@H](OC(C)=O)C([N+]5(C)CCCCC5)CC4(C)[C@H]3CCC12C.[Br-].[Br-]` (stereo partly specified), for which the Inhibition is reported as 18.65%. Turning to `COc1cc(N)c(Cl)cc1C(=O)NC1CN2CCC1CC2.Cl.O` (stereo unspecified) [ZACOPRIDE HYDROCHLORIDE], the Inhibition came out at 11.2%. For `CN(C)CCOc1ccc(/C(=C(/CCCl)c2ccccc2)c2ccccc2)cc1.O=C(O)CC(O)(CC(=O)O)C(=O)O` [TOREMIFENE CITRATE] the value was 2.98%; for `COc1cc([C@@H]2c3cc4c(cc3[C@H](O)[C@H]3COC(=O)[C@H]23)OCO4)cc(OC)c1OC` [PODOFILOX], 14.46%. On to `C[N+]1(CCC(C(N)=O)(c2ccccc2)c2ccccc2)CCCCC1.[Br-]` [FENPIVERINIUM BROMIDE], for which the Inhibition is 25.98%. For the compound `COc1ccc2[nH]cc(CCN)c2c1` [5-METHOXYTRYPTAMINE], the Inhibition is recorded as -13.25%. `Oc1ncnc2[nH]ncc12` [ALLOPURINOL]: the Inhibition came out at 24.59%. In the case of `COc1ccc(CCN)cc1OC`, the Inhibition came to 4.73%. Regarding `CC[C@@H](C(N)=O)N1CCCC1=O`, the Inhibition was found to be 44.54%. In the case of `O=C(O)CCCc1ccc(N(CCCl)CCCl)cc1` [CHLORAMBUCIL] it was 5.1%.

`CC(C(=O)O)c1ccc(-c2ccccc2)c(F)c1` (stereo unspecified) [FLURBIPROFEN]: the Inhibition turned out to be 44.27%. For `Cl.O.Oc1ccc2c3c1O[C@H]1c4[nH]c5ccccc5c4C[C@@]4(O)C(C2)N(CC2CC2)CC[C@]314`, the Inhibition turned out to be 12.62%. With `CCOC(=O)C1=C(COCCN)NC(C)=C(C(=O)OC)C1c1ccccc1Cl` (stereo unspecified) [AMLODIPINE], the Inhibition is reported as -7.64%. `Cl.O[C@@H]1CCCC[C@H]1N1CCC(c2ccccc2)CC1`: the Inhibition worked out at 10.24%. With `Cl.Oc1ccc2c3c1OC1C(O)CC[C@@]4(O)[C@@H](C2)N(CC2CCC2)CC[C@]314` (stereo partly specified), the Inhibition is on record as 17.84%. As for `Cl.Cl.OCCN1CCN(CCCN2c3ccccc3Sc3ccc(C(F)(F)F)cc32)CC1` [FLUPHENAZINE HYDROCHLORIDE], the Inhibition turned out to be 12.24%.

Turning to `Cc1ccc(-c2nc3ccc(C)cn3c2CC(=O)N(C)C)cc1.Cc1ccc(-c2nc3ccc(C)cn3c2CC(=O)N(C)C)cc1.O=C(O)C(O)C(O)C(=O)O` [ZOLPIDEM TARTRATE], the Inhibition was found to be 0.42%.
